This assay addresses T1, Flag-Cited1 (mouse) (UniProt P97769).
T1 sequence: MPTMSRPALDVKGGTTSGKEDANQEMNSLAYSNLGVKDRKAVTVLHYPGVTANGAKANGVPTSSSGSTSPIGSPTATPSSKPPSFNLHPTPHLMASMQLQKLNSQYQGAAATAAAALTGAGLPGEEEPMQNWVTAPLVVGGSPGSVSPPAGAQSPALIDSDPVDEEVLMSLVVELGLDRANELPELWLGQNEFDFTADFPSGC
As to the kind of experiment: co-IP; Whole-cell lysates of E14T ESCs expressing Flag-Cited1, lysed in Co-IP buffer (50 mM Tris-HCl pH 7.5, 150 mM NaCl, 10% glycerol, 2 mM EDTA, 0.5% NP-40, protease inhibitors); precipitated with anti-Flag M2 magnetic beads overnight; western blot of the endogenous partner; 5% of WCL as input. Background: In western blotting, separated proteins are transferred to a membrane and probed.

Chains of the proteins cited; added tags and fusions are not shown. Residues count along the entry.
UniProt O35607, residues 27-1038: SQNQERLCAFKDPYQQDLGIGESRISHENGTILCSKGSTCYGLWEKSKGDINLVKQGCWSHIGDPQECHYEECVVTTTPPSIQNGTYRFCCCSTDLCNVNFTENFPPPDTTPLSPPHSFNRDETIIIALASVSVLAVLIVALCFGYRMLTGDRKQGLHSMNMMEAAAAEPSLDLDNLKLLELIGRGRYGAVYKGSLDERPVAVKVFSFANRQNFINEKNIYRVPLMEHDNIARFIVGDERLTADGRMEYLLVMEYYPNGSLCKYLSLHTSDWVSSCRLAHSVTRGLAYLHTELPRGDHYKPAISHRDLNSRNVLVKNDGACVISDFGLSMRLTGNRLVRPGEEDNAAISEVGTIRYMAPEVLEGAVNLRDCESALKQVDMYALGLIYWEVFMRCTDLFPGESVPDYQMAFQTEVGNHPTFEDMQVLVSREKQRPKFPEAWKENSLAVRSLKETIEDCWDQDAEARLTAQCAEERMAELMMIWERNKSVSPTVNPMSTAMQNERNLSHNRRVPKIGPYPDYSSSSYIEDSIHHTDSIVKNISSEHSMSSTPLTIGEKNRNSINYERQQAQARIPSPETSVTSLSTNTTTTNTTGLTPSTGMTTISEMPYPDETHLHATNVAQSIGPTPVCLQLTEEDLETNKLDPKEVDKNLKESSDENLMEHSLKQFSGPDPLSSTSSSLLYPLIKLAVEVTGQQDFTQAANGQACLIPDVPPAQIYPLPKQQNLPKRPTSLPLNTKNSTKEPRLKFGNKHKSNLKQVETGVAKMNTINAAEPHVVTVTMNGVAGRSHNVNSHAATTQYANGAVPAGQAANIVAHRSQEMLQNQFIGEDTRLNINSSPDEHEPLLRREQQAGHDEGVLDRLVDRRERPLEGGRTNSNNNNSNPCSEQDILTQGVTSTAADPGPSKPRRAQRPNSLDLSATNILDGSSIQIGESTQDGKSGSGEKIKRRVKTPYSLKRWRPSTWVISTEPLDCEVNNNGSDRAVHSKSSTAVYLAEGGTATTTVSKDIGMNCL
UniProt P97471: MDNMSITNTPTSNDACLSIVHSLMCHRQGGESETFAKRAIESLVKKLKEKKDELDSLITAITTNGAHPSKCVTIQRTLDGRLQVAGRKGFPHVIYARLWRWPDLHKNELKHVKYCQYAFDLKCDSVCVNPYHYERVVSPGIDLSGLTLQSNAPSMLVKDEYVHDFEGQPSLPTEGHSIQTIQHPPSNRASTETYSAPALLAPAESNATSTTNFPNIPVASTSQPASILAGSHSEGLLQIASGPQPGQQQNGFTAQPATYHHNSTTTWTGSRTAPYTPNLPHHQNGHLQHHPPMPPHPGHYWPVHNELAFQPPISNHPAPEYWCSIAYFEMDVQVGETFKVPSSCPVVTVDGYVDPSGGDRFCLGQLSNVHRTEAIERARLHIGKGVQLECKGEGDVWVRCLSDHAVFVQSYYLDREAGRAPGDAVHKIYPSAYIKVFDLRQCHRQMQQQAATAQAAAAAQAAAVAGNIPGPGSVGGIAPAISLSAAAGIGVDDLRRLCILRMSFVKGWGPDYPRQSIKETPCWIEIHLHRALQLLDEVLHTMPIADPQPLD

These are yes or no findings as the source states them, for the method shown. Binding seen in cells or lysates may run through a third protein. Some entries that bind do so weakly or less than the wild type. Tags and fused reporters may be left off the sequences shown.

In the case of “Bmpr2 (from UniProt O35607 27-1038) (receptor)”, the binding entry is “binds”.

Smad4 (from UniProt P97471 1-551): the binding result is “binds”.

These data come from publication PMC6134011.
